Drawing on paper doi:10.1101/2025.06.10.658980, “Structures reveal how the Cas1-2/3 integrase captures, delivers, and integrates foreign DNA into CRISPR loci” (bioRxiv, 2025), this text covers binding for two molecules.

Results are given in words; binding and its absence hold for the method and conditions named. For some assays here: In cells and extracts the contact can be indirect. Some results given as binding are weak or reduced against the parent protein; the word gives no strength. For some assays here: Sequences can lack the tags named with a protein.

The target of assay [1] is T1, Cas1 (type I-F, Pseudomonas aeruginosa PA14), StrepII-tagged (Pseudomonas aeruginosa PA14) (UniProt Q02ML7).
T1 sequence: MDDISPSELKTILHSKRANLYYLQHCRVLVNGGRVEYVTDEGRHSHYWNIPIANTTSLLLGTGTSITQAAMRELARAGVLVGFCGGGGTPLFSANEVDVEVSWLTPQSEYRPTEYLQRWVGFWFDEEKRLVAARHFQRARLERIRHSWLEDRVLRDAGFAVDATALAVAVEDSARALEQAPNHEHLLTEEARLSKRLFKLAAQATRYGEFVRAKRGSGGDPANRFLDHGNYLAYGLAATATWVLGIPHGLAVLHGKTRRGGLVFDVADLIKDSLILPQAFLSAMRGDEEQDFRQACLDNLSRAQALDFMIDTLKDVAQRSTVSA
The experiment in a line: cryo-EM structure; Cas1-2/3 capture complex without nucleic acid, 12.8 uM, 3.3 Å; both purified.

The target in assay [2] is T1, Cas1 (type I-F, Pseudomonas aeruginosa PA14), StrepII-tagged (Pseudomonas aeruginosa PA14). Kind of assay: pull-down; StrepII-Cas1 and untagged Cas2/3 co-expressed in E. coli BL21(DE3); clarified lysate over StrepTrap HP, eluted with 3 mM desthiobiotin; 50 mM HEPES pH 7.5, 500 mM KCl, 10% glycerol, 1 mM DTT.
Assay [3] has the same target. Kind of assay: cryo-EM structure; Cas1-2/3 integration complexes with foreign DNA (with or without PAM), IHF and a 200 bp CRISPR leader-repeat-spacer DNA, purified on Superose 6; five maps of 3.8-4 Å, no atomic model; both purified.
For assay [4] the target is unchanged. The experiment in a line: cryo-EM structure; Cas1-2/3 delivery complex bound to a foreign DNA fragment with a 3' GG PAM, purified by SEC (Superdex 200; 20 mM Tris-HCl pH 7.5, 200 mM monopotassium glutamate, 5 mM EDTA, 1 mM TCEP, 2% glycerol), 3.31 Å; both purified. On the technique in general: SEC sorts molecules by how far they enter the pores of the column.
The target of assay [5] is T2, Integration Host Factor subunit alpha (IHFα), Pseudomonas aeruginosa (P. aeruginosa) (UniProt Q51472).
T2 sequence: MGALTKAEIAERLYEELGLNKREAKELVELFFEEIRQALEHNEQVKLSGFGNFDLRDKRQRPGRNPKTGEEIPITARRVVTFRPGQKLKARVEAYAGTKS
Kind of assay: co-purification (HisTrap, heparin, SEC); 6xHis-IHFα and StrepII-IHFβ co-expressed in E. coli BL21(DE3); captured on HisTrap HP, tags cleaved, untagged heterodimer purified on Heparin Sepharose and Superdex 75 (25 mM HEPES-NaOH pH 7.5, 200 mM NaCl, 5% glycerol).

B1: Cas2/3 fusion protein (type I-F, Pseudomonas aeruginosa PA14), untagged (enzyme)
chain: MNILLVSQCEKRALSETRRILDQFAERRGERTWQTPITQAGLDTLRRLLKKSARRNTAVACHWIRGRDHSELLWIVGDASRFNAQGAVPTNRTCRDILRKEDENDWHSAEDIRLLTVMAALFHDIGKASQAFQAKLRNRGKPMADAYRHEWVSLRLFEAFVGPGSSDEDWLRRLADKRETGDAWLSQLARDDRQSAPPGPFQKSRLPPLAQAVGWLIVSHHRLPNGDHRGSASLARLPAPIQSQWCGARDADAKEKAACWQFPHGLPFASAHWRARTALCAQSMLERPGLLARGPALLHDSYVMHVSRLILMLADHHYSSLPADSRLGDPNFPLHANTDRDSGKLKQRLDEHLLGVALHSRKLAGTLPRLERQLPRLARHKGFTRRVEQPRFRWQDKAYDCAMACREQAMEHGFFGLNLASTGCGKTLANGRILYALADPQRGARFSIALGLRSLTLQTGQAYRERLGLGDDDLAILVGGSAARELFEKQQERLERSGSESAQELLAENSHVHFAGTLEDGPLREWLGRNSAGNRLLQAPILACTIDHLMPASESLRGGHQIAPLLRLMTSDLVLDEVDDFDIDDLPALSRLVHWAGLFGSRVLLSSATLPPALVQGLFEAYRSGREIFQRHRGAPGRATEIRCAWFDEFSSQSSAHGAVTSFSEAHATFVAQRLAKLEQLPPRRQAQLCTVHAAGEARPALCRELAGQMNTWMADLHRCHHTEHQGRRISFGLLRLANIEPLIELAQAILAQGAPEGLHVHLCVYHSRHPLLVRSAIERQLDELLKRSDDDAAALFARPTLAKALQASTERDHLFVVLASPVAEVGRDHDYDWAIVEPSSMRSIIQLAGRIRRHRSGFSGEANLYLLSRNIRSLEGQNPAFQRPGFETPDFPLDSHDLHDLLDPALLARIDASPRIVEPFPLFPRSRLVDLEHRRLRALMLADDPPSSLLGVPLWWQTPASLSGALQTSQPFRAGAKERCYALLPDEDDEERLHFSRYEEGTWSNQDNLLRNLDLTYGPRIQTWGTVNYREELVAMAGREDLDLRQCAMRYGEVRLRENTQGWSYHPYLGFKKYN
notes: Two Cas2/3 subunits stand in the Cas1-2/3 heterohexamer, joined through the Cas2 homodimer; also called Cas3; Cas3a; source: E. coli BL21(DE3), co-expressed with StrepII-Cas1 from a single plasmid; in lysate, and purified with Cas1 (StrepTrap HP, Superdex 200)
Turning to B1, the binding entry in assay [1], in assay [2], in assay [3] and in assay [4] was “binds” each time.

B2: Integration Host Factor subunit beta (IHFβ), Pseudomonas aeruginosa (protein, UniProt Q51473 1-94)
chain: MTKSELIERIVTHQGQLSAKDVELAIKTMLEQMSQALATGDRIEIRGFGSFSLHYRAPRVGRNPKTGESVRLDGKFVPHFKPGKELRDRVNEPE
Take B2: the binding entry in assay [5] is “binds”.
